The values that follow come from patent US20060052293A1.

No constants are given. Whether binding was seen depends on the method and setting. Some binding calls cover weakened binding; strength is not graded here. Sequences can lack the tags named with a protein.

Assay [1] has as its target Sos-FOXC2 hybrid protein (human full-length FOXC2, amino acids 1-501, fused to hSos from the pSos vector) (human) (UniProt Q07889). The experiment in a line: SRS (CytoTrap) yeast two-hybrid; interaction strength relative to the MafB-MafB interaction (++++).
For assay [2] the target is unchanged. The experiment in a line: SRS (CytoTrap) yeast two-hybrid, compared with the MafB-MafB interaction.
Assay [3] has the same target. The experiment in a line: SRS (CytoTrap) yeast two-hybrid screen.

B1: AES1-2/Groucho (prey clones, fused to the src myristylation signal of pMyr) (protein)
chain: MMFPQSRHSGSSHLPQQLKFTTSDSCDRITDEFQLLQAQYHSLKLECDKLASEKSEMQRHYVMYYEMSYGLNIEMHKQAEIVKRLNGICAQVLPYLSQEHQQQVLGAIERAKQVTAPELNSIIRQQLQAHQLSQLQALALPLTPLPVGLQPPSLPAVSAGTGLLSLSALGSQAHLSKEDKNGHDGDTHQEDDGEKSD
Regarding B1, the binding entry in assay [1] and in assay [2] was “binds” each time.

B2: p621 (prey clone, fused to the src myristylation signal of pMyr) (protein)
chain: PSEKNEFSRRKRSKSEDMDNVQSKRRRYMEEEYEAEFQVKITAKGDINQKLQKVIQWLLEEKLCALQCAVFDKTLAELKTRVEKIECNKRHKTVLTELQAKIARLTKRFEAAKEDLKKRHEHPPNPPVSPGKTVNDVNSNNNMSYRNAGTVRQMLESKRNVSESAPPSFQTPVNTVSSTNLVTPPAVVSSQPKLQTPVTSGSLTATSVLPAPNTATVVATTQVPSGNPQPTISLQPLPVILHVPVAVSSQPQLLQSHPGTLVTNQPSGNVEFISVQSPPTVSGLTKNPVSLPSLPNPTKPNNVPSVPSPSIQRNPTASAAPLGTTLAVQAVPTAHSIVQATRTSLPTVGPSGLYSPSTNRGPIQMKIPISAFSTSSAAEQNSNTTPRIENQTNKTIDASVSKKAADSTSQCGKATGSDSSGVIDLTMDDEESGASQDPKKLNHTPVSTMSSSQPVSRPLQPIQPAPPLQPSGVPTSGPSQTTIHLLPTAPTTVNVTHRPVTQVTTRLPVPRAPA
For the molecule B2, the binding result in assay [3], in assay [1] and in assay [2] was “binds” in each case.

B3: FTP3 (Heterogeneous Nuclear Ribonucleoprotein-H'; prey clone D348-A449, fused to the src myristylation signal of pMyr) (protein)
chain: DKANMQHRYVELFLNSTAGTSGGAYDHSYVELFLNSTAGASGGAYGSQMMGGMGLSNQSSYGGPASQQLSGGYGGGYGGQSSMSGYDQVLQENSSDYQSNLA
For B3, the binding entry in assay [1] and in assay [2] was “binds” each time.
